Experimental data taken from the supplement of paper PMC7661543.
± gives the standard deviation of the averaged measurements. The effect of the compound repeats well; differences between the knockouts mostly do not.

Test system: ZR-75-1
Assay: relative cell number vs DMSO control (72 h) (% of DMSO); higher = less growth inhibition (more cells)
Method: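 QMAP-Seq: a pool of 5 breast cancer cell lines (ZR-75-1, SKBR3, HCC-38, MDA-MB-231, BT-20), each carrying 12 doxycycline-inducible Cas9 sgRNA perturbations (11 knockouts plus non-targeting sgNT), was treated with compounds for 72 h at four 10-fold doses (10 nM-10 uM or 1 nM-1 uM range). Barcodes were amplified and sequenced, and cell number was interpolated from 293T spike-in standard curves. The result is expressed as % of the median of DMSO wells. Two biological replicates.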

[1] = sgRNA knockout: sgATF3, 1000 nM
[2] = sgRNA knockout: sgATF3, 10000 nM
[3] = sgRNA knockout: sgATF4, 1000 nM
[4] = sgRNA knockout: sgATF4, 10000 nM
[5] = sgRNA knockout: sgATF6, 1000 nM
[6] = sgRNA knockout: sgATF6, 10000 nM
[7] = sgRNA knockout: sgATG7, 1000 nM
[8] = sgRNA knockout: sgATG7, 10000 nM
[9] = sgRNA knockout: sgERN1, 1000 nM
[10] = sgRNA knockout: sgERN1, 10000 nM
[11] = sgRNA knockout: sgHSF2, 1000 nM
[12] = sgRNA knockout: sgHSF2, 10000 nM
[13] = sgRNA knockout: sgNFE2L2, 10 nM
[14] = sgRNA knockout: sgNFE2L2, 100 nM
[15] = sgRNA knockout: sgNFE2L2, 1000 nM
[16] = sgRNA knockout: sgNFE2L2, 10000 nM
[17] = sgRNA knockout: sgSLC35F2, 10 nM
[18] = sgRNA knockout: sgSLC35F2, 100 nM
[19] = sgRNA knockout: sgSLC35F2, 1000 nM
[20] = sgRNA knockout: sgSLC35F2, 10000 nM
[21] = sgRNA knockout: sgXBP1, 1000 nM
[22] = sgRNA knockout: sgXBP1, 10000 nM

SMILES | relative cell number (sgRNA knockout: sgATF3, 10 nM) | relative cell number (sgRNA knockout: sgATF3, 100 nM) | relative cell number [1] | relative cell number [2] | relative cell number (sgRNA knockout: sgATF4, 10 nM) | relative cell number (sgRNA knockout: sgATF4, 100 nM) | relative cell number [3] | relative cell number [4] | relative cell number (sgRNA knockout: sgATF6, 10 nM) | relative cell number (sgRNA knockout: sgATF6, 100 nM) | relative cell number [5] | relative cell number [6] | relative cell number (sgRNA knockout: sgATG7, 10 nM) | relative cell number (sgRNA knockout: sgATG7, 100 nM) | relative cell number [7] | relative cell number [8] | relative cell number (sgRNA knockout: sgERN1, 10 nM) | relative cell number (sgRNA knockout: sgERN1, 100 nM) | relative cell number [9] | relative cell number [10] | relative cell number (sgRNA knockout: sgHSF2, 10 nM) | relative cell number (sgRNA knockout: sgHSF2, 100 nM) | relative cell number [11] | relative cell number [12] | relative cell number [13] | relative cell number [14] | relative cell number [15] | relative cell number [16] | relative cell number [17] | relative cell number [18] | relative cell number [19] | relative cell number [20] | relative cell number (sgRNA knockout: sgXBP1, 10 nM) | relative cell number (sgRNA knockout: sgXBP1, 100 nM) | relative cell number [21] | relative cell number [22]
CCCS(=O)(=O)Nc1ccc(F)c(C(=O)c2c[nH]c3ncc(Cl)cc23)c1F [PLX4720] | 106 ± 5.1 | 94 ± 29 | 112 ± 17 | 118 ± 3.1 | 108 ± 60 | 85.1 ± 2.8 | 72.6 ± 15 | 119 ± 3.7 | 102 ± 22 | 80 ± 18 | 79.8 ± 19 | 126 ± 88 | 97.92 ± 0.51 | 69.7 ± 31 | 150 ± 15 | 157 ± 50 | 102 ± 16 | 102 ± 7 | 120 ± 22 | 141 ± 74 | 98.7 ± 15 | 124 ± 23 | 101 ± 5.1 | 111 ± 30 | 98.7 ± 29 | 144 ± 11 | 103 ± 41 | 111 ± 52 | 111 ± 39 | 85.6 ± 87 | 98.2 ± 15 | 128 ± 37 | 108 ± 3.7 | 120 ± 6.5 | 117 ± 16 | 103 ± 52
CCOC(=O)c1ccc(N2NC(=O)C(=Cc3ccc([N+](=O)[O-])o3)C2=O)cc1 [PYR41] | 114 ± 24 | 88.3 ± 4 | 94.2 ± 28 | 61.4 ± 33 | 125 ± 11 | 88.5 ± 8.2 | 127 ± 10 | 75.6 ± 11 | 105 ± 40 | 89.2 ± 6.7 | 93.4 ± 7.8 | 91.5 ± 34 | 89.2 ± 13 | 90 ± 28 | 104 ± 51 | 69.2 ± 35 | 96.6 ± 2.3 | 87.4 ± 4.1 | 116 ± 18 | 101 ± 11 | 116 ± 12 | 103 ± 21 | 106 ± 1.2 | 88.3 ± 4.2 | 111 ± 11 | 107 ± 21 | 114 ± 1.8 | 106 ± 28 | 93.2 ± 1.5 | 92.5 ± 16 | 122 ± 42 | 78.7 ± 24 | 103 ± 4.3 | 88.72 ± 0.81 | 104 ± 12 | 108 ± 6.6
O=C(CCc1ccc(O)cc1)c1c(O)cc(O)cc1O [Phloretin] | 115 ± 47 | 131 ± 41 | 121 ± 9.7 | 108 ± 24 | 112 ± 42 | 107 ± 29 | 138 ± 55 | 105 ± 22 | 98.3 ± 63 | 109 ± 3.1 | 85.8 ± 4.1 | 70.6 ± 28 | 81.4 ± 24 | 87.651 ± 0.039 | 120 ± 66 | 81.88 ± 0.62 | 112 ± 24 | 109.1 ± 0.82 | 93.9 ± 1.2 | 96.5 ± 13 | 104 ± 17 | 79.3 ± 14 | 102 ± 35 | 116 ± 8.9 | 108 ± 1.1 | 112 ± 22 | 95.6 ± 18 | 129 ± 16 | 99.6 ± 4.7 | 126 ± 50 | 70 ± 26 | 126 ± 45 | 110 ± 1.4 | 92.7 ± 21 | 86.5 ± 5.2 | 91 ± 7.7
c1ccc2c(Oc3nc(Nc4ccc(N5CCOCC5)cc4)c4ncn(C5CCCCC5)c4n3)cccc2c1 [Purmorphamine] | 125 ± 8.4 | 68.4 ± 3.4 | 105 ± 49 | 46.9 ± 16 | 113 ± 29 | 106 ± 12 | 84.1 ± 15 | 39.2 ± 21 | 60.2 ± 14 | 85.9 ± 32 | 68.6 ± 16 | 56.1 ± 2.7 | 103 ± 19 | 91.9 ± 11 | 100 ± 6.5 | 46.2 ± 1.2 | 95.4 ± 15 | 89.1 ± 1.8 | 107 ± 27 | 48.6 ± 1.6 | 110 ± 19 | 83.5 ± 25 | 93.1 ± 1.8 | 51.7 ± 3.2 | 113 ± 9 | 107 ± 38 | 106 ± 20 | 61.6 ± 3.3 | 92.9 ± 30 | 55.827 ± 0.013 | 88 ± 58 | 38.5 ± 13 | 106 ± 19 | 105 ± 36 | 110 ± 17 | 51.2 ± 2
CC(C)(C)c1ccc(S(=O)(=O)NCc2ccc(C(=O)Nc3cccnc3)cc2)cc1 [STF31] | 116 ± 4.9 | 86.7 ± 20 | 64.4 ± 13 | 66.9 ± 1.7 | 91.8 ± 10 | 82.5 ± 35 | 34 ± 4.4 | 60.2 ± 14 | 112 ± 57 | 88 ± 7.7 | 71.7 ± 64 | 67.5 ± 33 | 110 ± 22 | 105 ± 12 | 79.6 ± 17 | 38.7 ± 2.1 | 107 ± 8.8 | 87.3 ± 25 | 80.1 ± 12 | 70.7 ± 20 | 102 ± 9.7 | 80.1 ± 28 | 63.2 ± 12 | 42 ± 3.2 | 119.8 ± 0.34 | 92.1 ± 40 | 69.3 ± 4.9 | 36.8 ± 4.4 | 108 ± 18 | 97.3 ± 14 | 91.5 ± 5.8 | 50.4 ± 5 | 98.2 ± 1.3 | 80.5 ± 16 | 79.48 ± 0.3 | 43.2 ± 13
CN1CCN(CCOc2cc(OC3CCOCC3)c3c(Nc4c(Cl)ccc5c4OCO5)ncnc3c2)CC1 [Saracatinib] | 88.7 ± 12 | 102 ± 14 | 64.1 ± 17 | 58.1 ± 7.8 | 78.2 ± 17 | 104 ± 19 | 72.8 ± 7.5 | 53.7 ± 2.7 | 96 ± 2.9 | 100 ± 88 | 72 ± 23 | 29.5 ± 18 | 92.2 ± 33 | 77.4 ± 32 | 67.4 ± 24 | 67.9 ± 18 | 77.1 ± 25 | 84.6 ± 16 | 114 ± 6.5 | 75.2 ± 4.3 | 75.2 ± 8.2 | 91.4 ± 3.3 | 82.08 ± 0.15 | 64.7 ± 10 | 114 ± 16 | 80.8 ± 2.1 | 83.3 ± 30 | 64.1 ± 5.1 | 107 ± 51 | 120 ± 21 | 59.4 ± 14 | 42.9 ± 28 | 79.6 ± 2.9 | 89.8 ± 8.1 | 91.5 ± 4.3 | 61.8 ± 2.4
